# Measurements taken from the supplement of paper PMC8728848.
# The other results are listed elsewhere or left out.
# B1: Langerin K299A/K313A (Homo sapiens), Q9UJ71 (protein)
# chain: STLNAQIPELKSDLEKASALNTKIRALQGSLENMSKLLKRQNDILQVVSQGWKYFKGNFYYFSLIPKTWYSAEQFCVSRNSHLTSVTSESEQEFLYKTAGGLIYWIGLTKAGMEGDWSWVDDTPFNKVQSARFWIPGEPNNAGNNEHCGNIAAPSLQAWNDAPCDATFLFICKRPYVPSEP
# How the values were obtained:
# Assay in all cases: glycan array binding signal (z-score within array); higher = stronger binding
# Details in all cases: glycan notation: IUPAC condensed, linker removed
# [1] = molecular target: Fuc(a1-2)Gal(b1-4)[Fuc(a1-3)]GlcNAc
# Outline: (§1)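 Arrays were curated from the Consortium for Functional Glycomics database, 3228 in total, and kept only where the protein sequence was available. Binding is expressed as a within-array Z-score. This score was averaged across arrays of the same protein sequence at different concentrations or buffers and across linkers, and negative values can be read as non-binding.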
# [2] = molecular target: Fuc(a1-2)Gal(b1-4)[Fuc(a1-3)]GlcNAc(b1-2)Man(a1-3)[Fuc(a1-2)Gal(b1-4)[Fuc(a1-3)]GlcNAc(b1-2)Man(a1-6)]Man(b1-4)GlcNAc(b1-4)[Fuc(a1-6)]GlcNAc
# Outline: as §1
# [3] = molecular target: Fuc(a1-2)Gal(b1-4)[Fuc(a1-3)]GlcNAc(b1-2)[Fuc(a1-2)Gal(b1-4)[Fuc(a1-3)]GlcNAc(b1-4)]Man(a1-3)[Fuc(a1-2)Gal(b1-4)[Fuc(a1-3)]GlcNAc(b1-2)Man(a1-6)]Man(b1-4)GlcNAc(b1-4)GlcNAc
# Outline: as §1
# [4] = molecular target: Fuc(a1-2)Gal(b1-4)[Fuc(a1-3)]GlcNAc(b1-3)Gal(b1-4)[Fuc(a1-3)]GlcNAc
# Outline: as §1
# [5] = molecular target: Fuc(a1-2)Gal(b1-4)[Fuc(a1-3)]GlcNAc(b1-3)Gal(b1-4)[Fuc(a1-3)]GlcNAc(b1-3)Gal(b1-4)[Fuc(a1-3)]GlcNAc
# Outline: as §1
# [6] = molecular target: Fuc(a1-2)Gal(b1-4)[Fuc(a1-3)]GlcNAc(b1-3)GalNAc
# Outline: as §1
# [7] = molecular target: Fuc(a1-2)Gal(b1-4)[Fuc(a1-3)]GlcNAc(b1-3)[Neu5Ac(a2-6)Gal(b1-4)GlcNAc(b1-6)]Gal(b1-4)Glc
# Outline: as §1
# [8] = molecular target: Fuc(a1-2)Gal3S(b1-4)GlcNAc
# Outline: as §1
# [9] = molecular target: Fuc(a1-2)Gal6S(b1-3)GlcNAc
# Outline: as §1
# [10] = molecular target: Fuc(a1-2)Gal6S(b1-3)GlcNAc6S
# Outline: as §1
# Fuc(a1-2)Gal6S(b1-4)Glc = molecular target: Fuc(a1-2)Gal6S(b1-4)Glc
# Outline: as §1
# [11] = molecular target: Fuc(a1-2)Gal6S(b1-4)Glc6S
# Outline: as §1
# Fuc(a1-2)[Gal(a1-3)]Gal = molecular target: Fuc(a1-2)[Gal(a1-3)]Gal
# Outline: as §1
# [12] = molecular target: Fuc(a1-2)[Gal(a1-3)]Gal(b1-3)GalNAc
# Outline: as §1
# [13] = molecular target: Fuc(a1-2)[Gal(a1-3)]Gal(b1-3)GalNAc(b1-3)Gal(a1-4)Gal(b1-4)Glc
# Outline: as §1
# [14] = molecular target: Fuc(a1-2)[Gal(a1-3)]Gal(b1-3)GlcNAc
# Outline: as §1
# [15] = molecular target: Fuc(a1-2)[Gal(a1-3)]Gal(b1-3)GlcNAc(b1-2)Man(a1-3)[Fuc(a1-2)[Gal(a1-3)]Gal(b1-3)GlcNAc(b1-2)Man(a1-6)]Man(b1-4)GlcNAc(b1-4)GlcNAc
# Outline: as §1
# [16] = molecular target: Fuc(a1-2)[Gal(a1-3)]Gal(b1-3)GlcNAc(b1-2)Man(a1-3)[Fuc(a1-2)[Gal(a1-3)]Gal(b1-3)GlcNAc(b1-2)Man(a1-6)]Man(b1-4)GlcNAc(b1-4)[Fuc(a1-6)]GlcNAc
# Outline: as §1
# [17] = molecular target: Fuc(a1-2)[Gal(a1-3)]Gal(b1-3)GlcNAc(b1-3)GalNAc
# Outline: as §1
# [18] = molecular target: Fuc(a1-2)[Gal(a1-3)]Gal(b1-3)GlcNAc(b1-6)GalNAc
# Outline: as §1
# [19] = molecular target: Fuc(a1-2)[Gal(a1-3)]Gal(b1-4)Glc
# Outline: as §1
# [20] = molecular target: Fuc(a1-2)[Gal(a1-3)]Gal(b1-4)GlcNAc
# Outline: as §1
# [21] = molecular target: Fuc(a1-2)[Gal(a1-3)]Gal(b1-4)GlcNAc(b1-2)Man
# Outline: as §1
# [22] = molecular target: Fuc(a1-2)[Gal(a1-3)]Gal(b1-4)GlcNAc(b1-2)Man(a1-3)[Fuc(a1-2)[Gal(a1-3)]Gal(b1-4)GlcNAc(b1-2)Man(a1-6)]Man(b1-4)GlcNAc(b1-4)GlcNAc
# Outline: as §1
# [23] = molecular target: Fuc(a1-2)[Gal(a1-3)]Gal(b1-4)GlcNAc(b1-2)Man(a1-3)[Fuc(a1-2)[Gal(a1-3)]Gal(b1-4)GlcNAc(b1-2)Man(a1-6)]Man(b1-4)GlcNAc(b1-4)[Fuc(a1-6)]GlcNAc
# Outline: as §1
# [24] = molecular target: Fuc(a1-2)[Gal(a1-3)]Gal(b1-4)GlcNAc(b1-3)GalNAc
# Outline: as §1
# [25] = molecular target: Fuc(a1-2)[Gal(a1-3)]Gal(b1-4)GlcNAc(b1-6)GalNAc
# Outline: as §1
# [26] = molecular target: Fuc(a1-2)[Gal(a1-3)]Gal(b1-4)[Fuc(a1-3)]Glc
# Outline: as §1
# [27] = molecular target: Fuc(a1-2)[Gal(a1-3)]Gal(b1-4)[Fuc(a1-3)]GlcNAc
# Outline: as §1
# [28] = molecular target: Fuc(a1-2)[Gal(a1-3)]Gal(b1-4)[Fuc(a1-3)]GlcNAc(b1-3)GalNAc
# Outline: as §1
# [29] = molecular target: Fuc(a1-2)[Gal(a1-4)]Gal(b1-4)GlcNAc
# Outline: as §1
# [30] = molecular target: Fuc(a1-2)[GalNAc(a1-3)]Gal
# Outline: as §1
# [31] = molecular target: Fuc(a1-2)[GalNAc(a1-3)]Gal(b1-3)GalNAc(a1-3)[Fuc(a1-2)]Gal(b1-4)GlcNAc
# Outline: as §1
# [32] = molecular target: Fuc(a1-2)[GalNAc(a1-3)]Gal(b1-3)GalNAc(b1-3)Gal(a1-4)Gal(b1-4)Glc
# Outline: as §1
# [33] = molecular target: Fuc(a1-2)[GalNAc(a1-3)]Gal(b1-3)GlcNAc
# Outline: as §1
# [34] = molecular target: Fuc(a1-2)[GalNAc(a1-3)]Gal(b1-3)GlcNAc(b1-2)Man(a1-3)[Fuc(a1-2)[GalNAc(a1-3)]Gal(b1-3)GlcNAc(b1-2)Man(a1-6)]Man(b1-4)GlcNAc(b1-4)GlcNAc
# Outline: as §1
# [35] = molecular target: Fuc(a1-2)[GalNAc(a1-3)]Gal(b1-3)GlcNAc(b1-2)Man(a1-3)[Fuc(a1-2)[GalNAc(a1-3)]Gal(b1-3)GlcNAc(b1-2)Man(a1-6)]Man(b1-4)GlcNAc(b1-4)[Fuc(a1-6)]GlcNAc
# Outline: as §1
# [36] = molecular target: Fuc(a1-2)[GalNAc(a1-3)]Gal(b1-3)GlcNAc(b1-3)GalNAc
# Outline: as §1
binder,measurement,setting,value
B1,glycan array binding signal (z-score),[1],-0.172
same,glycan array binding signal (z-score),[2],0.769
same,glycan array binding signal (z-score),[3],2.43
same,glycan array binding signal (z-score),[4],-1.13
same,glycan array binding signal (z-score),[5],-0.476
same,glycan array binding signal (z-score),[6],0.849
same,glycan array binding signal (z-score),[7],0.735
same,glycan array binding signal (z-score),[8],-0.352
same,glycan array binding signal (z-score),[9],-0.418
same,glycan array binding signal (z-score),[10],0.002
same,glycan array binding signal (z-score),Fuc(a1-2)Gal6S(b1-4)Glc,0.031
same,glycan array binding signal (z-score),[11],-0.734
same,glycan array binding signal (z-score),Fuc(a1-2)[Gal(a1-3)]Gal,-0.006
same,glycan array binding signal (z-score),[12],-0.182
same,glycan array binding signal (z-score),[13],-0.015
same,glycan array binding signal (z-score),[14],-0.307
same,glycan array binding signal (z-score),[15],-0.389
same,glycan array binding signal (z-score),[16],0.747
same,glycan array binding signal (z-score),[17],-0.631
same,glycan array binding signal (z-score),[18],-0.614
same,glycan array binding signal (z-score),[19],-0.342
same,glycan array binding signal (z-score),[20],-0.041
same,glycan array binding signal (z-score),[21],-0.95
same,glycan array binding signal (z-score),[22],-0.45
same,glycan array binding signal (z-score),[23],-0.269
same,glycan array binding signal (z-score),[24],0.287
same,glycan array binding signal (z-score),[25],-0.156
same,glycan array binding signal (z-score),[26],-1.11
same,glycan array binding signal (z-score),[27],1.51
same,glycan array binding signal (z-score),[28],1.86
same,glycan array binding signal (z-score),[29],-1.07
same,glycan array binding signal (z-score),[30],-0.712
same,glycan array binding signal (z-score),[31],-0.393
same,glycan array binding signal (z-score),[32],-0.842
same,glycan array binding signal (z-score),[33],-0.289
same,glycan array binding signal (z-score),[34],0.327
same,glycan array binding signal (z-score),[35],-0.096
same,glycan array binding signal (z-score),[36],2.17

# 2 entries from above in a different format.
binder | measurement | setting | value
B1 | glycan array binding signal (z-score) | Fuc(a1-2)Gal6S(b1-4)Glc | 0.031
same | glycan array binding signal (z-score) | [18] | -0.614
